At least one peptide structure holds a part that was inferred or is arguable (an end, a ring closure or a residue). Residues, ends and D or L forms follow the SMILES beside them.
Experiments:
[1] = tested on: sickle cell haemoglobin (HbS); experiment: HbS gelation assay (solubility Csol of deoxygenated HbS); format: biochemical, human; details: for effect on solubility of HbS (anti-polymerisation): FIG. 3, other HbS gelation assays; for inhibition of gelation of deoxygenated HbS solutions: in vitro
Experimental: A number of in vitro methods have been developed for testing the effects of compounds of the functioning of HbS molecules. One such method determines the ability of a compound to inhibit gel formation in HbS solutions. In this gelation assay, Hb solution in phosphate buffer, pH 7.0, at physiological concentrations are mixed at 0° C. with the test compound and deoxygenated by evacuation. […] The solutions are then transferred to centrifuge tubes and equilibrated at 37° C. for 30 minutes before centrifugation at 150,000 g for 1 hour. The supernatant is decanted from the gel and the Hb concentration (Csol) thereof determined spectrophotometrically. For sickle cell haemoglobin without addition of anti-sickling agent, the Csol is typically 17 gm/dl. This compares with a Csol of 23 gm/dl for haemoglobin extracted from individuals having sickle cell trait.

whole sickle cells = experiment: Microscopic whole cell sickling assay; format: cell-based, human; details: pre-incubation with peptide, different partial pressures of oxygen
Source text: The uptake of oxygen by haemoglobin as a function of oxygen pressure gives a measure of the oxygen affinity of the haemoglobin and is often described by the value of P50, i.e. the pressure of oxygen at which haemoglobin is 50% saturated with O2. The P50 for HbS is typically higher than that for HbA, the decreased affinity for O2 compensating for the anaemia associated with the disease by facilitating release of O2 to the tissues. An agent which would decrease the P50 of HbS would cause the deoxy-form of the molecule to be less favoured and would thus inhibit polymerisation. It is possible to correlate the degree of oxygenation of sickle erythrocytes with the ability thereof to assume sickled morphology by counting deoxygenated cells using a light microscope. An anti-sickling agent which reduces the number of sickled cells produced at low oxygen concentrations would be effective in preventing or diminishing a crisis.
There are fewer sickle cells in the presence of the dipeptide over the entire range of oxygen concentration. […] In vivo, this increased reversibility would reduce the number of circulating irreversibly sickled cells (ISC).

| Compound | effect on Csol of HbS ([1]; FIG. 2) | effect on solubility of HbS (anti-polymerisation) [1] | inhibition of gelation of deoxygenated HbS solutions [1] | percentage of sickled cells (whole sickle cells) |
| --- | --- | --- | --- | --- |
| N[C@@H](CC(=O)O)C(=O)N[C@@H](Cc1ccccc1)C(=O)O [L-aspartic acid-L-phenylalanine, reference compound] (H-Asp-Phe-OH) | no significant rise in Csol |  |  |  |
| NCCCC[C@H](NC(=O)[C@@H](N)Cc1c[nH]cn1)C(=O)N[C@@H](Cc1ccc(O)cc1)C(=O)N[C@@H](Cc1c[nH]cn1)C(=O)O [L-histidine-L-lysine-L-tyrosine-L-histidine] (H-HKYH-OH) |  | anti-polymerisation effects | inhibit the gelation |  |
| NCCCC[C@H](N)C(=O)N[C@@H](Cc1ccc(O)cc1)C(=O)O [L-lysine-L-tyrosine] |  | anti-polymerisation effects | inhibit the gelation | reduction in the percentage of sickled cells |

From patent US4376766A, “Anti-sickling agents” (G.D. Searle & Co., priority 1980, dated 1983)
